Source: paper doi:10.1101/2024.07.01.600363

Amino acid sequences for entries named in this document (tags omitted).
UniProt P26233: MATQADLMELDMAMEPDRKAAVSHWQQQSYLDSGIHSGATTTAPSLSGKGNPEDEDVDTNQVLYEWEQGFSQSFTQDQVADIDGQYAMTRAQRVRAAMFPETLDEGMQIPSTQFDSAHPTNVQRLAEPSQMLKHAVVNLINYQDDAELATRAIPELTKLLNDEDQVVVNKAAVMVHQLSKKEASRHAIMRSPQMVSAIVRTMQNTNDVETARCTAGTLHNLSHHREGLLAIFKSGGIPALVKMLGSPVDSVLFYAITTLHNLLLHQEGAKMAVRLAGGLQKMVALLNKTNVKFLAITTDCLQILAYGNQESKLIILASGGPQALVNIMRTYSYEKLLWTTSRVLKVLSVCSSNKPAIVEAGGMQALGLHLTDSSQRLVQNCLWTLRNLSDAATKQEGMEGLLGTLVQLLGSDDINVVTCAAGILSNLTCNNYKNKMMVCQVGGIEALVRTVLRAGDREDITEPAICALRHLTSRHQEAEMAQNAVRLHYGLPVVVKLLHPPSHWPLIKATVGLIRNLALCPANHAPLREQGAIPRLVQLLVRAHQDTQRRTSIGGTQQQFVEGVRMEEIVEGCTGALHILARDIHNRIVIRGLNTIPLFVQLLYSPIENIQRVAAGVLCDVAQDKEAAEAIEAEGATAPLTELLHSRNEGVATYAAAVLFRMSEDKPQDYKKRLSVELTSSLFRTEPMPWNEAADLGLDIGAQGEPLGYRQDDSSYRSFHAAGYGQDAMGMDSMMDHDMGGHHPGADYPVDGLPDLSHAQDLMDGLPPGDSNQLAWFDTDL

Assays:
Experiment in all cases: affinity purification with mass spectrometry
[1] = target: FLAG-tagged Ephydatia fluviatilis β-catenin (E. fluviatilis)
[2] = target: FLAG-tagged Nematostella vectensis β-catenin (N. vectensis)
[3] = target: FLAG-tagged Bolinopsis mikado β-catenin (B. mikado)
[4] = target: FLAG-tagged Xenopus laevis β-catenin (X. laevis) (UniProt P26233)

Measured: binding

B1: MOCS3 (protein, UniProt Q58E95 1-451)
chain: MDETDSQITCADSSVDKLSHLKRNEVKSCPLPELHGADEMLPELNKSCLTNPDILRYSRQLVLPDLGVQGQLKLSKASVLVIGCGGLGCPVAQYLAASGIGRLGLLDYDVVEMSNLHRQVLHGENRLGMSKSVSVAKTLRKLNSAVVYLPYHISLNPENALQIIQQYDIIADCSDNVPTRYLVNDTCVLAGKPLVSASALRWEGQLTVYNYHQGPCYRCLFPKPPPSETVTNCADGGVLGIVPGIIGSLQALEVLKIASGMAPSYSGVLLMFDALEGRFRNIKIRGKKNDCAACSNPSETAILQDYEAFCGSSASDKCRMLRLLSRDERLSVEEYKRLLDDHVPHILMDVRPQPEVDICRLPHSIHIPLKGLEEKNEKWVSFLRTKIAELITAGNRTEKTVITICKLGNDSQIAVKILQDLFGKEDLFIAKDVQGGLMAWAENIDPMFPRY
binds: all assays above

B2: HAUS8 (protein, UniProt Q0IHJ3 1-367)
chain: MSEAGVAPIEDGSQNSSGGSSGDAALKKSKGGAKVVKSRYMQIGRSKVSKNSLANTTVCSGGKVPERGSGGTPTRRSLAPHKAKITAAVPLPALDGSIFTKEDLQSTLLDGHRIARPDLDLSVINDRTLQKITPRPVVTSEQKKPKRDTTPVNLVPEDMVEMIESQTLLLTYLTIKMQKNLFRLEEKAERNLLLVNDQKDQLQETIHMMKRDLTLLQREERLRDLIEKQDEVLTPVVTSKDPFKDNYTTFATALDSTRHQLAIKNIHITGNRHRYLEELQKHLAITKSLLEEIMPSHASENAESFDTIKDLENIVLKTDEELARSFRQILDLSFKVNKEISLQSQKAVEETCESALVRQWYFDGSLP
binds: [2] | [4]

No constants are given. Whether binding was seen depends on the method and setting. In cells and extracts the contact can be indirect. A yes stands for co-enrichment or nearness to the bait. Other partners may have been found.
